# Test results taken from PubChem BioAssay (EPA / NIEHS).
# Amino acid sequences for entries named in this document (tags omitted). A change or cut given only in a name is not applied to a line headed by its entry.
# UniProt P08659, whole entry, looked up: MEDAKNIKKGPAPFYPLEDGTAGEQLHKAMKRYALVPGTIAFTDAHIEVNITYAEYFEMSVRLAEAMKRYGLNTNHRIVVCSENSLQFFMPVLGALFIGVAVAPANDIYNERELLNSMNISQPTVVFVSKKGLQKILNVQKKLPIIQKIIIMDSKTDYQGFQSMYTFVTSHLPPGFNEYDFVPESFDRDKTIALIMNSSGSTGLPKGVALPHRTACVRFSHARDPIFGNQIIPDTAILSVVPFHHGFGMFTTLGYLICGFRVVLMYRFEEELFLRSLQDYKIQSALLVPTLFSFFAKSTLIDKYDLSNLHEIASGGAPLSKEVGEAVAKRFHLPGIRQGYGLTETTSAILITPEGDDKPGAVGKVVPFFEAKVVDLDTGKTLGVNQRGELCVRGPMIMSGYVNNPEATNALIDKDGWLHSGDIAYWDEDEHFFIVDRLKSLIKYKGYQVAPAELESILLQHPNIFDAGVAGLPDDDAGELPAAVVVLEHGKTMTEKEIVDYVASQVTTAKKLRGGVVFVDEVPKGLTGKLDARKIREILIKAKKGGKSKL
# UniProt P19793: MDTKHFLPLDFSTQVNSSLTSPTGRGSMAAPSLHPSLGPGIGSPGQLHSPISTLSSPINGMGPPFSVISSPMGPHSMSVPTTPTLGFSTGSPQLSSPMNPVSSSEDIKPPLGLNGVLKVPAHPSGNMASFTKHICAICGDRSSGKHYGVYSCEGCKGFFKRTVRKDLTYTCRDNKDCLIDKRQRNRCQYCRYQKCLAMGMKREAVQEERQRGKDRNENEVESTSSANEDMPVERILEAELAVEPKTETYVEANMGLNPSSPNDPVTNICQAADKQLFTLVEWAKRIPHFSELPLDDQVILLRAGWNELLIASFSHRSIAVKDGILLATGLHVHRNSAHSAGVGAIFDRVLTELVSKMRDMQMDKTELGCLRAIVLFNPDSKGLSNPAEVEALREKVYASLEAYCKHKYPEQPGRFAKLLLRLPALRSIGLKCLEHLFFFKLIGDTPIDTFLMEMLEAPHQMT
# UniProt P10275: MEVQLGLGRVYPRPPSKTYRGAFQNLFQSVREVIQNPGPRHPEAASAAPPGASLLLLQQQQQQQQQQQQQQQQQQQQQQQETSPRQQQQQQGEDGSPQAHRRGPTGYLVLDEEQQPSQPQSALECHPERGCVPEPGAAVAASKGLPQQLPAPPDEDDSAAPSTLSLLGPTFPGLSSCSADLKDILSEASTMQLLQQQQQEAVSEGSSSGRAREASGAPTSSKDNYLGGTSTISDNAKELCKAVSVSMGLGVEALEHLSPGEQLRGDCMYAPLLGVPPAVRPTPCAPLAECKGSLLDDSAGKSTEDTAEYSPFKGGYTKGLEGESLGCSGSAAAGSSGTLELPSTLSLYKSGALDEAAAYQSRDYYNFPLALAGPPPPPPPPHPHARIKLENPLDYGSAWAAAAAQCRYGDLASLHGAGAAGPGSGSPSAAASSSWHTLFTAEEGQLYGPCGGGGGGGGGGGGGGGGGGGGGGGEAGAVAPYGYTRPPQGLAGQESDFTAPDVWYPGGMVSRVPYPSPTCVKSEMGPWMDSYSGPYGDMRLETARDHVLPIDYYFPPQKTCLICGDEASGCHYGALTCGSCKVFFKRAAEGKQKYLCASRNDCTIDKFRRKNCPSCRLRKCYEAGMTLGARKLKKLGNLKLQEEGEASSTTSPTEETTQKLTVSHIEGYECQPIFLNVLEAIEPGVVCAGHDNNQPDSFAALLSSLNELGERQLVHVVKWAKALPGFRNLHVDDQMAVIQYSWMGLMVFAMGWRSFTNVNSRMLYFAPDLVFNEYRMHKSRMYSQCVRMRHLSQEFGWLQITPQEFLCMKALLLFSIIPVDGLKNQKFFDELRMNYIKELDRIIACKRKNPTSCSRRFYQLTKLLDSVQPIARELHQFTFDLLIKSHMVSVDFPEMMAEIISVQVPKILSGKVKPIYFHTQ
# UniProt P15204: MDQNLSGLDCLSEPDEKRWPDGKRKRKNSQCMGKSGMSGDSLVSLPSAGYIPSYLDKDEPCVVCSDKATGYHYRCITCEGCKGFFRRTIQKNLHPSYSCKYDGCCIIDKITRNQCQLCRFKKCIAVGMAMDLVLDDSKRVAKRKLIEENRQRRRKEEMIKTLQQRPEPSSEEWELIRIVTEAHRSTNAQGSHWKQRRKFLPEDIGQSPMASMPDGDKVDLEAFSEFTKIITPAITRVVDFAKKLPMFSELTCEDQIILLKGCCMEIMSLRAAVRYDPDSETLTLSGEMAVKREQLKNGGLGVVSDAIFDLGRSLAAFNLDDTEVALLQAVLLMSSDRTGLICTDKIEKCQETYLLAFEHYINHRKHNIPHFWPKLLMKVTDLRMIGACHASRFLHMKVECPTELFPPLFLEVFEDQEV
# UniProt P28223, whole entry, looked up: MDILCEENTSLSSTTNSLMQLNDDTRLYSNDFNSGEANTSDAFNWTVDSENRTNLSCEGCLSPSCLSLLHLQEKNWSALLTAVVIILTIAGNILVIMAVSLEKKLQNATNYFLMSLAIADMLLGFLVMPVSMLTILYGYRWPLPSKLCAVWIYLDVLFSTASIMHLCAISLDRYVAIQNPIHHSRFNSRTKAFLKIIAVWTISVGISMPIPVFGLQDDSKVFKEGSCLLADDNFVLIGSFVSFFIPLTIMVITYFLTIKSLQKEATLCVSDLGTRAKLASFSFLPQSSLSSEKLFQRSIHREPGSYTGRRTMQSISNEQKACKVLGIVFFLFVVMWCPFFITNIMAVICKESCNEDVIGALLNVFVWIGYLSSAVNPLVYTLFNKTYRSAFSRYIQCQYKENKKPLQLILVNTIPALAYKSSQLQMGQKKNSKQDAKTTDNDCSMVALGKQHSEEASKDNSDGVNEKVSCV
# UniProt P21917, whole entry, looked up: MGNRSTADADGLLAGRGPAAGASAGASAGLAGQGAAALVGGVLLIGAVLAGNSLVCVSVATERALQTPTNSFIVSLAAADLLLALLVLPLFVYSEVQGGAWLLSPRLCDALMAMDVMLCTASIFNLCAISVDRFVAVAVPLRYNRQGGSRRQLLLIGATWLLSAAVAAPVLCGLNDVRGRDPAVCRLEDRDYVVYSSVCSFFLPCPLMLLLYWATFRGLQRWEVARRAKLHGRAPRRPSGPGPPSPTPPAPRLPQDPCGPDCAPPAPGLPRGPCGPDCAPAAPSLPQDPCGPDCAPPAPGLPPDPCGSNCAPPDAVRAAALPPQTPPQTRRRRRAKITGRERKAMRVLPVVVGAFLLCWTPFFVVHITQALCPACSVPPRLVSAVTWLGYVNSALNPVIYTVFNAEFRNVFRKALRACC
# UniProt P20309, whole entry, looked up: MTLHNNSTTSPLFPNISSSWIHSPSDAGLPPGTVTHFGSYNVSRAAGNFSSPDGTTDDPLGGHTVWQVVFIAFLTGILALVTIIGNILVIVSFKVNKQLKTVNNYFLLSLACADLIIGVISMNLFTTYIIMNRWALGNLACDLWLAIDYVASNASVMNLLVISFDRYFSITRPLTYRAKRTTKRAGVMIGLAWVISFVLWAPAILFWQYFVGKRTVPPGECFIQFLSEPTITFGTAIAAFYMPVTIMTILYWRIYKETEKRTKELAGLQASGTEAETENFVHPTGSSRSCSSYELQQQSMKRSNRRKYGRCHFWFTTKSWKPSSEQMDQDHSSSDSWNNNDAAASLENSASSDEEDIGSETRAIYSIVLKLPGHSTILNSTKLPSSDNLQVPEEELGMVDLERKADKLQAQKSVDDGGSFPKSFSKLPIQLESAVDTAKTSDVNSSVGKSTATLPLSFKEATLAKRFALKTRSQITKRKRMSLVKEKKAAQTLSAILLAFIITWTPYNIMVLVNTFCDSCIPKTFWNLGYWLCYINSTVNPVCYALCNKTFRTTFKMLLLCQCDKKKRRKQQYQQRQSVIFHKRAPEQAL
# UniProt P04798: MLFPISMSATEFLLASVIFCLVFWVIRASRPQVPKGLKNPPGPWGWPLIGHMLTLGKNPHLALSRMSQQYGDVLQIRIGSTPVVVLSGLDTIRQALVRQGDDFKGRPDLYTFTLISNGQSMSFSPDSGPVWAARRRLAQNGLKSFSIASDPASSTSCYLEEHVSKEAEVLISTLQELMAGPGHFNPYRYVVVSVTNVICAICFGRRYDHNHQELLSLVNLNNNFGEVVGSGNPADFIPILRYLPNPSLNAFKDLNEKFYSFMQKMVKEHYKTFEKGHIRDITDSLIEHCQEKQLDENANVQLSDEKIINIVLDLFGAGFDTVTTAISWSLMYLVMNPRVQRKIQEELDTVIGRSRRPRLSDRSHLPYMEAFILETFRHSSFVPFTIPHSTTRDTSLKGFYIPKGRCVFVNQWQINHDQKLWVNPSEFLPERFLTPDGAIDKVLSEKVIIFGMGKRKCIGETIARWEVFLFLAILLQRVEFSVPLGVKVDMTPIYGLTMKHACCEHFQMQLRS
# UniProt P16257, whole entry, looked up: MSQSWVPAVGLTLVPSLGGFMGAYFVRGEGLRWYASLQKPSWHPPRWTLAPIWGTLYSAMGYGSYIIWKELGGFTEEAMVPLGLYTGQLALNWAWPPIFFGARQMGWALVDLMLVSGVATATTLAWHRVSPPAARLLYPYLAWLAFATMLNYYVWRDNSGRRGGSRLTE
# UniProt P10276, whole entry, looked up: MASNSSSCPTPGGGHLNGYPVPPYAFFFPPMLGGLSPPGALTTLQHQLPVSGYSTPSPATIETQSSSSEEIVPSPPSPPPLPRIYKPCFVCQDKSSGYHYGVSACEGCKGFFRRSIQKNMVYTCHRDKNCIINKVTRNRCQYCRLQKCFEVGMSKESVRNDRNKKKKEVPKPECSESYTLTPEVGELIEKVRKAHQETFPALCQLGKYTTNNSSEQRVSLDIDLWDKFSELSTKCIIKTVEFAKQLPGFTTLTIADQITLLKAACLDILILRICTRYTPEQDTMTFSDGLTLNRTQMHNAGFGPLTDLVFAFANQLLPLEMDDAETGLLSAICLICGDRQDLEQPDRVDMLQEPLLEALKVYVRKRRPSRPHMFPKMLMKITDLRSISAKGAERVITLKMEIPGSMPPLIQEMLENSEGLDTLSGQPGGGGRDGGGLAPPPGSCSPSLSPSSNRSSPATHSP
# UniProt P28190, whole entry, looked up: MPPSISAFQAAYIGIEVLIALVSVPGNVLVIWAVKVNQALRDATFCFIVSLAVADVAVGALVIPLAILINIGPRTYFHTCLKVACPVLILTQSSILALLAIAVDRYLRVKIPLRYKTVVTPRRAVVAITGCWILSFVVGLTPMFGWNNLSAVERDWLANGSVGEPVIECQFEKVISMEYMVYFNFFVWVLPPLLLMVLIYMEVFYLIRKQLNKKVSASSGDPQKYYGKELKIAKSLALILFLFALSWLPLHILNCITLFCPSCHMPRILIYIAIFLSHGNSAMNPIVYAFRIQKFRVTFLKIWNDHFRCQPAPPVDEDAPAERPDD
# The shares of active, inactive and inconclusive entries below differ from those in the screen. For some assays here: Where the call is inconclusive, the potency comes from a doubtful curve fit. Some compounds were tested as several samples or in several runs, with calls that do not always agree. Activity calls are given as the source filed them. The calls were made as follows: active = hit-call score of the fitted dose curve at least 0.9, where 1 is the maximum; inconclusive = response in the unintended direction; inactive = score below 0.9.
# Tests used:
# [1] = molecular target: Luciferin 4-monooxygenase (Photinus pyralis) (UniProt P08659); assay: CCTE_Simmons_QuantiLum_inhib_2: CCTE's Firefly Luciferase Inhibition Assay, Simmons Lab (AID 2283767);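 as to AC50: potency for inhibitors that lower luciferase luminescence relative to DMSO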
# Method in brief: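 Cell-free QuantiLum luciferase, 5 ng/well; compounds 5 nM–87.5 uM final, 8 conc, 0.5% DMSO; 30 min, 37C, dark. Detection reagent (150 uM D-luciferin, 147 uM dATP, CoA, DTT, pH 7.8 final) injected per well, kinetic luminescence. Triplicate biological replicates.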
# [2] = molecular target: Retinoic acid receptor RXR-alpha (Homo sapiens) (UniProt P19793); assay: TOX21_TR_RXR_BLA_Antagonist_Followup_ratio: Tox21 Thyroid Hormone Receptor beta Retinoid X Receptor alpha (RXRa) Antagonism Beta-lactamase (BLA) Follow-Up Assay, Ratio (AID 2283972)
# Method in brief: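 Beta-lactamase reporter readout as cleaved/uncleaved substrate ratio (460:530 nm) after 2 h substrate loading at room temperature. GAL4-RXRa bla HEK293T cells were exposed 16 h at 37C to 11-point compound series; loss of signal scored against DMSO baseline.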
# [3] = CCTE_Shafer_MEA_dev_AB: CCTE's Alamar Blue Assay for Cytotoxicity in the Neural Network Formation Assay, Shafer Lab (AID 2284083);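 also: resazurin reduction fluorescence as viability of cultured neurons; twelve days of exposure from plating with re-dosing on DIV 5 and 9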
# Method in brief: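 Fluorescent resazurin reduction serves as the viability read-out, with DMSO as negative control and baseline. Cells were primary rat cortical neurons grown on MEA plates and dosed from day 0 to day 12, treatment renewed on DIV 5 and 9.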
# [4] = molecular target: Androgen Receptor/SRC-1 Co-activator, AR (gene 367) (UniProt P10275); assay: OT_AR_ARSRC1_0480: Odyssey Thera (OT) 8-hour HEK293T Protein-Complementation Assay for Androgen Receptor/SRC-1 Co-activator (AID 2283354);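 also: hits raise the complementation signal above DMSO so AC50 marks enhancers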
# Method in brief: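 Split-Venus PCA, stable HEK293T, AR/SRC-1 fusions; 8 h exposure. Readout: 488nm N/C fluorescence ratio, ≥400 cells/image; fitted upward vs DMSO baseline.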
# [5] = molecular target: Nuclear receptor subfamily 1 group I member 2 (Mus musculus) (UniProt O54915); assay: ATG_mPXR_XSP2: Attagene TRANS-FACTORIAL Multi-Species (XSP1) HepG2 Assay for mouse Pregnane X Receptor (PXR) (AID 2283831)
# Method in brief: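 Transient HepG2 transfection, multiplexed GAL4-UAS reporters, NR-GAL4 chimeras. 24 h compound exposure. Readout: reporter mRNA, RT-PCR, fluorescent capillary electrophoresis; positive direction vs DMSO baseline.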
# [6] = molecular target: frog Thyroid hormone Receptor alpha (TRa), thra-a (gene 397942) (UniProt P15204); assay: ATG_frTRa_XSP2: Attagene TRANS-FACTORIAL Multi-Species (XSP2) HepG2 Assay for frog Thyroid hormone Receptor alpha (TRa) (AID 2283839);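 also: AC50 reflects induction of frog TRa-driven reporter mRNA above DMSO baseline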
# Method in brief: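 Read-out: fluorescent reporter-transcript fragments resolved by capillary electrophoresis after RT-PCR and HpaI cut. Human HepG2 liver cells carry a transfected frog TRα-Gal4 chimera driving a UAS reporter; 24 h exposure, DMSO baseline, positive-direction fit.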
# [7] = molecular target: Nucleoli Translocation, AR (gene 367) (UniProt P10275); assay: UPITT_HCI_U2OS_AR_TIF2_Nucleoli_Antagonist: University of Pittsburgh U2OS Androgen Receptor-Transcriptional Intermediary Factor 2 (AR-TIF2) Antagonism High Content Imaging Assay for Nucleoli Translocation (AID 2283997)
# Method in brief: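 Compounds are added at 20 uM final concentration in 0.2% DMSO to U2OS cells carrying AR-RFP and TIF2-GFP fusions. Nucleolar AR-RFP fluorescence is then quantified by automated imaging. Antagonism is fitted positively against DHT baseline.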
# [8] = molecular target: human Serotonin, 5-Hydroxytryptamine Receptor 2A (5HT2A), HTR2A (gene 3356) (UniProt P28223); assay: NVS_GPCR_h5HT2A: NovaScreen (NVS) G Protein-Coupled Receptor Assay for human Serotonin, 5-Hydroxytryptamine Receptor 2A (5HT2A) (AID 2283249)
# Method in brief: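 Radioligand displacement on human cortex tissue extract, counted by filtration and scintillation 1.5 h post-dosing. Initial single-concentration screen at 25 uM in duplicate, concentration series in follow-up; DMSO as baseline.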
# [9] = molecular target: human Dopamine Receptor D4.4 (DRD4.4), DRD4 (gene 1815) (UniProt P21917); assay: NVS_GPCR_hDRD4.4: NovaScreen (NVS) G Protein-Coupled Receptor Assay for human Dopamine Receptor D4.4 (DRD4.4) (AID 2283264)
# Method in brief: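 Filter-binding assay with a tritiated or iodinated ligand, cell-free receptor prepared from CHO, 1 hour. Loss of bound radioactivity versus DMSO; single 25 uM duplicate screen, then concentration-response for actives.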
# [10] = molecular target: Muscarinic acetylcholine receptor M3 (Homo sapiens) (UniProt P20309); assay: NVS_GPCR_hM3: NovaScreen (NVS) G Protein-Coupled Receptor Assay for human Muscarinic, M3 Receptor (AID 2283272)
# Method in brief: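 Radioligand displacement binding on human M3 receptor in CHO-derived membranes, 1 h incubation, filter-based scintillation counting. Primary screen in duplicate at 25 uM; actives followed up in concentration series; loss of signal versus DMSO.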
# [11] = NVS_IC_rCaBTZCHL: NovaScreen (NVS) Ion Channel Assay for Calcium Channel, Type L, Benzothiazepine Site (CaBTZCHL) (AID 2283337)
# Method in brief: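 Rat cortical membrane preparation, cell-free. Radioligand displaced by test chemical; 1.5 h incubation; filtration, scintillation count. DMSO = negative control/baseline. Primary: duplicate, 25 uM; secondary: concentration series.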
# [12] = molecular target: human Adenosine A2a Receptor (AdoRA2a), ADORA2A (gene 135) (UniProt P29274); assay: NVS_GPCR_hAdoRA2a: NovaScreen (NVS) G Protein-Coupled Receptor Assay for human Adenosine A2a Receptor (AdoRA2a) (AID 2283256)
# Method in brief: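 HEK293-derived receptor preparation, radioligand displacement, 1.5 h, filtration + scintillation read. Loss of bound signal scored vs DMSO. Single-point 25 uM in duplicate first, then concentration-response for actives.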
# [13] = Tanguay_ZF_120hpf_PE_legacy: (Legacy) Oregon State University Tanguay Lab 120 Hour Post-fertilization zebrafish Assay for Pericardial Edema (AID 2283640);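 as to AC50: potency for increased incidence of pericardial edema versus DMSO baseline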
# Method in brief: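 Static waterborne exposure, 5D wild-type embryos, 28C, to 120 hpf; final DMSO 0.64% (vol/vol). Binary PE call at 120 hpf by brightfield; fitted upward vs DMSO baseline. 5uM trimethyltin chloride as positive control.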
# [14] = Tanguay_ZF_120hpf_SWIM_legacy: (Legacy) Oregon State University Tanguay Lab 120 Hour Post-fertilization zebrafish Assay for Swim Bladder Malformation (AID 2283654);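 also: swim bladder malformation in each larva scored yes or no under brightfield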
# Method in brief: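 Tropical 5D embryos dechorionated at 4 hpf; 1 embryo/well from 6 hpf; static, sealed, dark exposure at 28C until 120 hpf; final DMSO 0.64%; 5uM trimethyltin chloride positive control; swim bladder defect recorded yes/no; dead embryos not scored.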
# [15] = molecular target: human CYP1A1, CYP1A1 (gene 1543) (UniProt P04798); assay: NVS_ADME_hCYP1A1: NovaScreen (NVS) CYP450-related Enzyme Activity (ADME) Assay for human CYP1A1 (AID 2283100)
# Method in brief: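 Read-out: fluorescence intensity from enzymatic turnover of substrate by recombinant CYP1A1, loss of signal indicating inhibition. Incubation 1 h post-dose. Primary single-point 10 uM in duplicate; actives rerun singly with top concentration 20 uM.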
# [16] = molecular target: rat Peripheral-type Benzodiazepine Receptor (PBR), Tspo (gene 24230) (UniProt P16257); assay: NVS_MP_rPBR: NovaScreen (NVS) Membrane Protein Assay for rat Peripheral-type Benzodiazepine Receptor (PBR) (AID 2283335)
# Method in brief: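 Single-concentration duplicate screening at 25 uM preceded concentration-series retesting of actives. Binding of a specific radioligand to rat kidney membrane PBR was read by filtration radiodetection after 1 h, with plate-wise positive and negative controls.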
# [17] = molecular target: Retinoic acid receptor alpha (Homo sapiens) (UniProt P10276); assay: NVS_NR_hRARa_Agonist: NovaScreen (NVS) Nuclear Receptor Binding Assay for human Retinoic Acid Alpha Receptor Agonism (RAR) (AID 2283361)
# Method in brief: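 TR-FRET signal, 2 h post-dosing; cell-free extracted protein; DMSO = baseline, positive fitting direction; 25 uM single-point duplicate, then concentration series for actives.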
# [18] = test system: Sodium/Iodide Symporter (NIS), SLC5A5 (gene 6528); assay: CPHEA_Stoker_NIS_Inhibition_RAIU: CPHEA's Radioactive Iodide Uptake (RAIU) Assay for Sodium/Iodide Symporter (NIS) Inhibition, Stoker and Laws Labs (AID 2283841)
# Method in brief: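 Iodide uptake through human NIS is measured in an engineered HEK293T line. Cells take up 125I (329pM final) for 2 hours at room temperature alongside chemicals at 0.001–100uM. Retained radioactivity is counted, and the signal is expressed against DMSO controls.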
# [19] = ATG_M_32_XSP2: Attagene TRANS-FACTORIAL Multi-Species (XSP2) HepG2 Assay for M19 Transcription Factor (Internal Marker) (AID 2283826)
# Method in brief: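 Read-out: fluorescent reporter mRNA fragments resolved by capillary electrophoresis after RT-PCR, gain-of-signal versus DMSO baseline. Cells were human HepG2 carrying transfected multi-reporter units, exposed 24 h. Medium contained 3 nM 6-alpha-fluorotestosterone plus 1.5 nM norgestrel.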
# [20] = molecular target: Adenosine receptor A1 (Bos taurus) (UniProt P28190); assay: NVS_GPCR_bAdoR_NonSelective: NovaScreen (NVS) G Protein-Coupled Receptor Assay for bovine Adenosine Receptor (AdoR), Non-selective Binding (AID 2283244)
# Method in brief: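 Cell-free binding with membranes from bovine striatum: radioligand displaced by test chemical, read after 1 h by filtration and scintillation. Single-point 25 uM duplicate primary, 50 uM top concentration in follow-up curves, DMSO baseline.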
structure (smiles),measurement,setting,value
CCCCCCCCCCCCCCN(CCO)CCO,AC50,[1],inconclusive: 24.9 µM
O=c1cc(-c2ccccc2)oc2ccc3ccccc3c12,AC50,[2],inconclusive: 38.3 µM
O=C(F)C(F)(F)C(F)(F)C(F)(F)C(=O)F,outcome,[3],inactive
CC(C)(C)c1cccc(O)c1,outcome,[4],inactive
Cc1oc(-c2ccccc2)nc1CCOc1ccc(C[C@H](Nc2ccccc2C(=O)c2ccccc2)C(=O)O)cc1,AC50,[5],inconclusive: 0.09 µM
same,AC50,[6],inconclusive: 8.73e-06 µM
same,AC50,[7],active: 67.6 µM
Cc1cc(SC2=C(O)C[C@@](CCc3ccc(N)cc3)(C(C)C)OC2=O)c(C(C)(C)C)cc1CO,AC50,[8],inconclusive: 7.5 µM
same,AC50,[9],inconclusive: 40.4 µM
same,AC50,[10],inconclusive: 25 µM
same,AC50,[11],inconclusive: 7.06 µM
CCCCCC[C@@H](O)C/C=C\CCCCCCCC(=O)OCC(O)CO (stereo partly specified),AC50,[4],inconclusive: 50 µM
same,outcome,[7],inactive
CCCCCCCCCC(=O)O,outcome,[12],inactive
OCCOCCOCCO,AC50,[13],inconclusive: 67.4 µM
CC(=O)[C@H]1CC[C@H]2[C@@H]3CCC4=CC(=O)CC[C@]4(C)[C@H]3CC[C@]12C,outcome,[14],inactive
same,AC50,[2],inconclusive: 2.13 µM
CC(C)(c1cc(Br)c(O)c(Br)c1)c1cc(Br)c(O)c(Br)c1,AC50,[14],inconclusive: 9.67 µM
same,AC50,[5],inconclusive: 9.5 µM
same,AC50,[6],active: 5.76 µM
same,AC50,[3],inconclusive: 0.492 µM
COC(=O)[C@H]1[C@H]2C[C@@H]3c4[nH]c5cc(OC)ccc5c4CCN3C[C@H]2C[C@@H](OC(=O)c2cc(OC)c(OC)c(OC)c2)[C@@H]1OC,outcome,[15],inactive
same,AC50,[14],inconclusive: 47.2 µM
COc1cc(OC)nc(NC(=O)NS(=O)(=O)Nc2ccccc2C(=O)N(C)C)n1,outcome,[16],inactive
O=C(OCCCCCOC(=O)c1ccccc1)c1ccccc1,AC50,[17],inconclusive: 25 µM
same,AC50,[18],inconclusive: 0.000403 µM
C=CC(=O)OCCCC,outcome,[16],inactive
Oc1ccc2c(c1)OC[C@@H](N1CCC(O)(c3ccc(F)cc3)CC1)[C@H]2O,outcome,[8],inactive
same,AC50,[9],inconclusive: 0.0894 µM
same,AC50,[10],inconclusive: 0.744 µM
same,AC50,[16],inconclusive: 0.323 µM
same,outcome,[11],inactive
C1=CCCC=CCCC=CCC1,AC50,[17],inconclusive: 4.96 µM
NC=O,outcome,[13],inactive
BrCc1cccc(Oc2ccccc2)c1,AC50,[19],inconclusive: 40.6 µM
same,outcome,[5],inactive
same,outcome,[18],inactive
O=C(NO)C1(NS(=O)(=O)c2ccc(Oc3ccc(F)cc3)cc2)CCOCC1,AC50,[20],inconclusive: 0.796 µM
Cc1cc(S(=O)(=O)O)ccc1N=Nc1c(O)ccc2ccccc12,AC50,[17],active: 23.5 µM
CC1=CC(=O)CC(C)(C)C1,AC50,[20],inconclusive: 25 µM
COc1cc(C(C)(C)C)c(O)c(C(C)(C)C)c1,outcome,[1],inactive
C=C(C)C1CC=C(C)C(OC(C)=O)C1 (stereo unspecified),AC50,[12],inconclusive: 0.168 µM
Oc1ccc2cc(SSc3ccc4cc(O)ccc4c3)ccc2c1,outcome,[19],inactive
same,AC50,[6],active: 160 µM
OC[C@H]1O[C@@H]2O[C@H]3[C@H](O)[C@@H](O)[C@@H](O[C@H]4[C@H](O)[C@@H](O)[C@@H](O[C@H]5[C@H](O)[C@@H](O)[C@@H](O[C@H]6[C@H](O)[C@@H](O)[C@@H](O[C@H]7[C@H](O)[C@@H](O)[C@@H](O[C@H]8[C@H](O)[C@@H](O)[C@@H](O[C@H]9[C@H](O)[C@@H](O)[C@@H](O[C@H]1[C@H](O)[C@H]2O)O[C@@H]9CO)O[C@@H]8CO)O[C@@H]7CO)O[C@@H]6CO)O[C@@H]5CO)O[C@@H]4CO)O[C@@H]3CO,outcome,[18],inactive
CCc1cc(SCc2sc(-c3ccc(C(F)(F)F)cc3)nc2CN2CCN(c3ccc(OC)cc3)CC2)ccc1OCC(=O)O,outcome,[15],inactive
same,AC50,[20],inconclusive: 1.33 µM
same,outcome,[8],inactive
same,AC50,[12],inconclusive: 25 µM
same,AC50,[9],active: 6.77 µM
same,AC50,[10],inconclusive: 5.94 µM
same,AC50,[11],inconclusive: 25 µM
CCCCC(CC)COC(=O)c1ccccc1C(=O)O (stereo unspecified),AC50,[15],inconclusive: 10 µM
same,outcome,[13],inactive
same,AC50,[19],inconclusive: 102 µM
CN(C)Cc1ccccc1O,outcome,[7],inactive

# An excerpt of these results, as tab-separated lines.
structure (smiles)	measurement	setting	value
COc1cc(OC)nc(NC(=O)NS(=O)(=O)Nc2ccccc2C(=O)N(C)C)n1	outcome	[16]	inactive
Oc1ccc2c(c1)OC[C@@H](N1CCC(O)(c3ccc(F)cc3)CC1)[C@H]2O	outcome	[11]	inactive
